This is an account of results in US20220144911A1.

The chains behind the UniProt entries cited, without tags or fusion partners. Residues count along the entry.
UniProt P51496, residues 19-178: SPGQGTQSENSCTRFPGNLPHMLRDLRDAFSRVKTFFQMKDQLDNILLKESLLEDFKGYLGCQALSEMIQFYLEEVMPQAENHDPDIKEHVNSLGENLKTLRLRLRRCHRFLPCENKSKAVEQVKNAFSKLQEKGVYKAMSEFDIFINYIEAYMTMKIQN

Assay [1] has as its target cellular RhIL10 (rhesus macaque) (UniProt P51496). Kind of assay: SPR. A general note: SPR reads the build-up and loss of mass on a sensor chip optically.
The target is the same in assay [2]. Kind of assay: SPR sensorgrams.

These are yes or no findings as the source states them, for the method shown. Some entries that bind do so weakly or less than the wild type. Tags and fused reporters may be left off the sequences shown.

B1: RhIL10R1-FC-SLS (Fc fusion)
chain: AHGTELPSPPSVWFEAEFFHHILHWTPIPNQSESTCYEVALLRYGTGRWNSISNCSQALSYDLTAVTLDLYRSNGYWARVRAVDGSRHSNWTVTNTRFSLDEVTLTVGSVKLEIHNGFILGKIQPPRPKMAPANDTYESIFRHFREYEIAIRKVPGNFTFTHKKVKHENFSLLTSGEVGEFCVQVKPSVTSRTNKGMWSKEECVSLTRQYFTVTNVGSGGGGPSVFLFPPKPKDTLMISRTPEVTCVVVDVSQEDPDVKFNWYVNGAEVHHAQTKPRETQYNSTYRVVSVLTVTHQDWLNGKEYTCKVSNKALPAPIQKTISKDKGQPREPQVYTLPPSREELTKNQVSLTCLVKGFYPSDIVVEWESSGQPENTYKTTPPVLDSDGSYFLYSKLTVDKSRWQQGNVFSCSVMHEALHNHYTQKSLSLSGGCGTPGK
Turning to B1, the binding result in assay [1] and in assay [2] was “binds” throughout.
